Values of other authors in PMC11637191, “The pH-dependence of efflux ratios determined with bidirectional transport assays across cellular monolayers” (International Journal of Pharmaceutics: X, 2024).

System: MDCK-MDR1 cells
Conditions: with inhibitor, pH 7.4 iso-method; ref Obradovic et al. (2007); cited from earlier work

## CN1CCC[C@@H]1CCO[C@](C)(c1ccccc1)c1ccc(Cl)cc1 [Clemastine]
  Papp, inhibitor: 49.5 ×10⁻⁶ cm/s
